Results taken from paper PMC8402715 (Viruses, 2021).

Assay: Cell viability assay (Cell Titer Glow) in mock-infected RPE cells, cytotoxicity
Conditions: human

With Clc1ccc2c(c1)CCc1cccnc1C2=C1CCNCC1 [desloratadine, Desloratadine] as the compound, how does the CC50 at 48 h read?
The CC50 at 48 h was 46.7 µM.
